Assay results published in PMC4750058.
These are yes or no findings as the source states them, for the method shown. In cells and extracts the contact can be indirect. A yes stands for co-enrichment or nearness to the bait. Other partners may have been found. Where a sequence is shown, tags or fusion partners need not be part of it.

The chains behind the UniProt entries cited, without tags or fusion partners.
UniProt G0SFH5: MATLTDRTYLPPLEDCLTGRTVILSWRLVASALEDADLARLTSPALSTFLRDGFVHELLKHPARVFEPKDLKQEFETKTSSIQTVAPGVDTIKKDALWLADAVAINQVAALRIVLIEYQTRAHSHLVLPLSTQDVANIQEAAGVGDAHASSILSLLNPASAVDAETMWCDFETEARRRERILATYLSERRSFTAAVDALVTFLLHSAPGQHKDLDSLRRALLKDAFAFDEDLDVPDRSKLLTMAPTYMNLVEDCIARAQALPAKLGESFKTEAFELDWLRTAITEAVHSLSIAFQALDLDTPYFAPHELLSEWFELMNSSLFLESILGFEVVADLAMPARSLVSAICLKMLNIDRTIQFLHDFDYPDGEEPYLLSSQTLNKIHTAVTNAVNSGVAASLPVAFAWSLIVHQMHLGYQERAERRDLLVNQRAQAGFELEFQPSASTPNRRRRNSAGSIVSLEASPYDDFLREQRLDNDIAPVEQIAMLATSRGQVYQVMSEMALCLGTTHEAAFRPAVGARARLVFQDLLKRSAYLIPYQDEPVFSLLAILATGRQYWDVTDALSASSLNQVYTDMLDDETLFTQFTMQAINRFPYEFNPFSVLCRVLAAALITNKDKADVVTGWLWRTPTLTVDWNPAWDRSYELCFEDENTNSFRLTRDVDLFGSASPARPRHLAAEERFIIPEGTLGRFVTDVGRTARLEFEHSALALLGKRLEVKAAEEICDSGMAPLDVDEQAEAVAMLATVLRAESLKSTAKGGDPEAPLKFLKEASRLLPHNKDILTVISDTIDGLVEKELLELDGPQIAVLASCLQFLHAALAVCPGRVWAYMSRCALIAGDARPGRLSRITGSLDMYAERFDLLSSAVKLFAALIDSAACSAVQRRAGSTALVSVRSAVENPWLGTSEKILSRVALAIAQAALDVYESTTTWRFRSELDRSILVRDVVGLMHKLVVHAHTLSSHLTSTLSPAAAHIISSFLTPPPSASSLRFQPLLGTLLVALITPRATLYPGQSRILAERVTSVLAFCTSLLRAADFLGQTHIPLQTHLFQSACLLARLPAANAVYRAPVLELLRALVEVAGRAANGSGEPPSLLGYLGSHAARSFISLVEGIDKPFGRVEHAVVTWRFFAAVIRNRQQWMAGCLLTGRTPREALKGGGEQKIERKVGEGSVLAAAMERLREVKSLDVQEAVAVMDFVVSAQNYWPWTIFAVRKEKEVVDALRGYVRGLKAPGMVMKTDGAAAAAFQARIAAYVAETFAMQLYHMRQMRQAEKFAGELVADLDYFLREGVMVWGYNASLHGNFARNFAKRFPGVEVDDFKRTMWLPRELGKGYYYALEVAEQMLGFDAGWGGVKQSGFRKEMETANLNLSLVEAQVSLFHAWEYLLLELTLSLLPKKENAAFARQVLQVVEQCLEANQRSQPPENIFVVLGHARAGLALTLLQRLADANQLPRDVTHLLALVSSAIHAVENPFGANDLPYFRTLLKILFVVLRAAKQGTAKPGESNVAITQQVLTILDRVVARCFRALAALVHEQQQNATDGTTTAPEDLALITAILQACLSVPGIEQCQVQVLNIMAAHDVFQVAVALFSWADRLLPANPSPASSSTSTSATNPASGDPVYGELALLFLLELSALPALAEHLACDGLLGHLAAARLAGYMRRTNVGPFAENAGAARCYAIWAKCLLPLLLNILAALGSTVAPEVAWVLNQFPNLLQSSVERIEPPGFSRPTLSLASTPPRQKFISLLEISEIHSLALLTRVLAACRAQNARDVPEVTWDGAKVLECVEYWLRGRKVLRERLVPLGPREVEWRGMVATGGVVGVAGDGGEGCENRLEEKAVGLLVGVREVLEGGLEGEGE

T1: FpA-tagged ctNup53 (construct P_ACTIN-FpA-NUP53-TGPD) (Chaetomium thermophilum) (UniProt G0S156)
T1 sequence: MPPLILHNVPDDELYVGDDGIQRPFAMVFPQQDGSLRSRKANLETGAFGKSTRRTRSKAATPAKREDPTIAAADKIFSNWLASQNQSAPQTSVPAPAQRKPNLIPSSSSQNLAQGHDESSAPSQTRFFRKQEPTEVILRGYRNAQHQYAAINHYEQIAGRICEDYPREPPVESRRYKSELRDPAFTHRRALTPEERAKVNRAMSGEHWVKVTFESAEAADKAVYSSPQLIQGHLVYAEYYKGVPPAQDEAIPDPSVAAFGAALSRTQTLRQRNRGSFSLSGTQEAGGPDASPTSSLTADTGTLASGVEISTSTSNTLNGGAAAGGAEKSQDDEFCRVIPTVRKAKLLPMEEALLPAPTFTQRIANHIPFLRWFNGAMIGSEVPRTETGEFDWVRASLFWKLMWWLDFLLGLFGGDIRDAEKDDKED

B1: ctNup82 (endogenous) (protein, UniProt G0S4F3 1-882)
chain: MPKIKSFAPAWLNEPAPGHKLFAPAADDGTATVPLAYGKKIKPGPRRTIARRGTEIFVACGKQIRWGDLAQLKESWESRPSRSSVGPTSTKKDSSDFDDGAATAGYRIIKTPVADDIRQLVMSPNQDFLAVLTSHTVHICILPDSSHLHIQDTTPFKPKFWTLGPTTHVTSRSAVVSAVWHPLGVNGHALVTVTEDAIVRVWELSTADRWTFDAPTLAIDLKKLADATYLDQDFGVSTSATNKGFSPDAFDMEVAAACFPTRDSGGWAPMTLWLAMTSGDVYALCPLLPQRWTPPPTLIPSLSASIVAKVAAAEDNPESTPEERLVAQQQLEWMSEIDNQEPKLVEEATGEATIEVYTRPSRPGLVPKLQGPFDFDLNPEDEQDDEVELKDIYVIGEKPRVADLMRGEEEELEMMKEDQHNGLSLNIICLLSTSGQVKICLDIDGVEAQWLPPRSKNKRLFAPPPEPPSLLTFQTFDTLKPAEVTPDGWPMFSEDATSPYSFYVTHPAGITYISLTPWVFRLESELQSDSEAGTEFRIDLLAKGQGSERDRIFTQTRTQSPLAAATSIDDPDLGYFILSATQTDPIALFFETPERPVVPKETSVVIPEHVEERPPSPYWEPRPLFHPAEALDKPSAVPAWIDNLRTGRRRPLLTQELRLSMATLEVFHDGHKVVSTEVSDINDAVAELFRKCEALQGELRDQIKKVNEVKNRIHTITGDDLSDDPPVSEDQLIKQRIRVARERQEELANRMERLRKKFGRTTTRELSDKEKAWIEEVQNMATSILGPEAGQGALATTPNLAKQPWKRLEEIKTLRNALMAEAEQLQKVGDDTEESTPASQMPSLKIPSEIRKAKMAQVMSLLERESALVDAVKARIERLSIG
B2: ctNup159 (protein, UniProt G0SBS8 1-1481)
chain: MAFSFGNAGGGGGGVTQGKDLEVIQTEGLGFLALAGDAKVQLTSKWSPPPAPTASLLSIASRKGLVAAAGPDAVHVATTESVRKAFLAEKNGDSEVRPFNPEAKLPLPLRISQLAFTADEQYLVLSAETGGGLRAYDVNSLTQGNTQSAFELATNGETLRQLAPNPMPESAAFCAIVTTNGNLYMANLAERTLVSGPNGPTLRSQVSCAAWSTKGKQLVAGMADGSIYQMTPDGTEKAHIPKPPNLGDYHVSSVVWLENNVFLTIHNPTNSTNPDDKTVYHVITRQQSSGSPPNFTFQKLNDPVEPFVADKTPHHTVLRLKDFPPNLQDLLLVSSTAVETIGLLTRSKTPLATDKPADAITNVFTTTELADDSRRAQLPMSEDMMETYPIGVALDLSSKEKVYKPIPTDEEIEYSPGPLPGLWVLNNEGVLASWWVVYNESIRAGTTYSGIGGSSEVIPASPAPALASSTAPVPAFASPVSKPTFGSPSPATPAFGGPSALGTKASPWATAGGAASSTPTFGQPSFGKPAAPAFGQASFPGLGQKVSPWATGSTTSAAPAFGQSGFASAGTAPGKVFGSSFTAPSSGGFASFATKSGFASLSAPSGGSSIFSSKPGAPLTSAAPEVSMDTDTAFPPPSTKTDKPAFGSSPFVLGSTFKADPTAAHDIEKPKEGESKSLFDTGFGLSLEDAAKQPASAAESKDEEMRSTTPPLPPPTETKPKSIFESTTPTTTPAPQKFEFKTTTPSGFSTLLGSTKPVASSMPNIFATPKPTSAEKPKSIFDTLKPKEESKENLLKASEPPLPPDTTSKAVFQPGSSSSESAESSPGAAAKAAFKVGNDETPKPQKELAPKPEAVPLPPDFVKAKPKTEAKETKAEEPAVSPNLPVKPLAKKAEPIPAVPESASEEEQGQAEEEEAESGEEEEEEEEEGEGEEEEEEEEEEEEEEEEGEEGEEQSEAGSEGSGVDVAKDLSPTAKFGSMTPGYTPHTSLGGMAESTFSTISRSEVAEQSRPLFGEITKNAPPLFPAAGPLPVSPRSPSPVRGVVRSSILRPTETPRPVDTTPVPSRKGLLQKTASFGMSTGQKPAVDPNVKAQRKLAEKLKAEEQVLVDPEDEGIQQILQSKVEPTLRMNEFLAVDTKLAPMKPGRDDVPNACETLWRDINRMIDRLGLNSRSLQSFILGHTSHGKPGGRQKDDLEKPDDWVLIEAYDLGDMIDNKLARELEAGRIKDVEGTMAAIHNLGRDLAKLRAKEEDLRKLFNAQVDPDQIALTKALPLSAEQLAQQNELRRSYASFSKLLTEAEEALTVLKAKLASANAARGRRGAGAAQVPTVDAIIRTINKMTSMAEKRSGDIDVLESQMRKLRIGSLGPAGTPNGNGVGAGTVVPATPGGGGRSRESSPFVTPQSSRRAMFMSPGSVGTATPRGLLAATGTPSPTKKKLSMYTAEEKRELRAREAKRKATLRMLRESLARVGPNVVRLRDDD
B3: ctGle2 (protein, UniProt G0SEA3 1-357)
chain: MAGLFGTTTSTTTSTLGDLKNDVELGSPPEDSITDLSFNPNPNDPKDFLAVSSWDKKVRVYEIAANGQNQGKVQMEHEGPVFAVDFFKDGTKVISAGADKQAKVLDLASGQAMQVAAHDAPIRCVKYFEAGGTPMAVTGSWDKTIKYWDFRSATPAGTVQCQERVYTMDVKENLLVIGTADRYIDVINLKEPVKFYKTLQSPLKWQTRVVSCFTDSQGFAIGSIEGRCAIQYVEDKDQSMNFSFKCHRDTPQNNVTNVHAVNAISFHPQHGTFSTAGSDGTFHFWDKDAKHRLKGYPNVGGSITATKFNRNGTIFAYAISYDWSKGYQGNTANYPTKVMLHPVLGDECKPRPSVKKR
B4: ctNup170 (protein, UniProt G0S7B6 1-1416)
chain: MEPMTPMRPIPGAYVNTPAPPTANPARRRLFTEASSSGAAATTQLGAAPAPLASTMAPGPEINSGLMTPQAREDLPPVAKAAQVVNQTLQLDDSYPDLDSYCRPGASSDYEMQSSDSSWAPFHVVRHHNIPDKVFEHLNAGEVFTKLGLFAEIGYAWASIDSSLFLWDYTHPNPELIGYEEATHTITAVALVPPKPGVFVKTITHVLVVATTSEIILLGVSATPTPSGSKSLTLYSTRMSVHRGGSDVSFIVGTKDGRIFLGGESDTDIHEIFYQQEERWFSSRCGKINHSHPGWSAVVPSLAGLPFGSRQQEWLRGLYVDDTRNLLYSLSNRSTIRTYHMEGPEKLTKVIEKDKTSCLRDFAHMADSSPLFTDKTNIVALSPIPATEASKLHLMALTDTGCRLFLSATSSASYTMGGATSLAPQSMQLQFVKFPPRESPTRIRTLNGQIIDSQLDKTSRALDPSALGFRFSPGYFFDVVRKHPNQDMLFVSAPDTGRIKVTQPASALKYFEQGTWIELENGNRTIEIGLTTAPFAAAKQPLGFGNELAVQFDQVPGEFAVLTNTGVHIVRRRRLVDIFAKALGNCVSASDDALEREVRKFINQYGRVETIAAALAVACGQGSDLRTGTGRGMDRNTENLARAAFIEYGGQPRLAESDGKQSVSESVRLSSRHDALALYLTRLVRTLWKAKVVQVGSGSDISSTIPTSKLVTIQENVERLRNFLEANKSTIQGLAPPSERLFGRQEDIANQKEHQALHALQKLMESISEGISFVLMLFDERVSDIYARLDAVSQQQLKDLTYEQLFSQTPGKELAKVLVKAIVNRNIASGANVETVADALRRRCGSFCSPDDVVTFKAQEQLQRASEQAHNSPVLRALLAESLRLFEQVAGSLTPANLTTAVEQYISLKYYAGAIQLCLTVAQQKDRGNTALSWVNDGKPANDSRKKAFDERKICYNLIHQVLDKLESDFAGEPELVDGRPTLAATKRMEAYNVVNDSSDEVFHFDLYEWYIEKGWTDRILSIDSPHVITYLQRLAETDFRHAELLCRFYTTRSRFFEAAQVQTNLAKSDLNISLKDRIILLSRAKGNASVNTIGISRQQQQQLNHEASELLEIAHIQDDLLERLVADPRIPEERKAEIEEFLDGPIRTLTDLFNDYADQANYYDLCLLIFHAADFHNPRTILDTWNNLINQSHFEAEQRREYWEIVQAGGDLPAGVIAPIAEPPLPYVYVSQQIQLIAHRTSLDSLIFPVNSLLPVVCAYAINNGQDASIGADPCWPIQLFLNLGVPHALVVQVLENVLDTQEAPFTGRRRKLVVQWIAMAVDMWVREVERRGAMAAAAASGASGSEAVMGSWVSELLGRADQVLTQIAGTGATLRGGAASDAEEIASLRRTVKGLKRSVDMLLGGEMARMSFFR
B5: ctNsp1 (protein, UniProt G0SBQ3 1-678)
chain: MSFTFGQPSTSGASGQSNTSTAPASGGLFGSTTGSSTPAFSFGNTSGTQSGSLFGGATTGQKTSLFGNTSSTTPAGTPATSLFGQSTSSSSGPSLFGNASKPSGNLFGNTSTSAAGSSTPAGTPSLFGSKTATTSAGASSTTPAATAGSGSLFGSTTATTQGSSTPTSTGLFGGSSTASKSLFGSTTTPATGTSGSQTTPAKPLFGSFGSTTPAGAPPTDATKTAGLFGNLSKPATTGTSTPTLFGSTSATTQGQSSTPLFGAKPAETSTTTAASGAATPATSAPASTTPTLFGGATLTSSAPAASTSTSTATASTPAATKPLFGATATTSAPGSSTTTATPGLFSTTPATTAAAGSSTATSTLFGTKPATTTAAAASSTPAATSTPSLFGSKPASTTAPASGTPTTTTAPASTSAPATTTAAPTSGASATASTTTAGQDAKTTTAGLGASTVGPQSQLPRLKNKTMDEIITRWATDLAKYQKEFKEQAAKVMEWDRLLVENGEKIQKLYTSTYEAERASNEIERQLSNVESQQEELTAWLDRYERELDELYAKQMGSAAGEQAAGPDQERERTYKLAEKLTDQLDEMGKDLAKMIKEINDMSNTLSKGSKPDDPLTQIVRVLNGHLAQLQWIDTNAAALQAKVAAAQKAAGSMGANVPGTETDAAESFYRSYRGGLK
modifications: O-GlcNAc modification suggested by Western blot; sites not stated
B6: ctNup57 (protein, UniProt G0S0R2 1-326)
chain: MFSSLNTRPAGQSLFGANTGGGLFGQSLANQPQQQQQPLQQQQQQAAPALGQSQINQNQQLGGSLWQPGSLTAYQKPIPEQIKLIVDKWNPNHPNCAFKTYLYNKVDEHTVPLYGPGPNEDPKEWEEALQRKPAPNFIPVLCSGFPSIVARLMLQRRVITEFNNKLHQINASLDAILSRHDLDHTVRAFNARRRHAELSRRCLHLAARVQVLRNRGYALSGDEDELKQKLQQIDKTLNDPAQGSRLEELWSRLIVLRGYAEDLKDQINQAGITESDGLGEEIEAKAKKILEDYDKQLQHLKKQVEEAKKDFEEWEKQHNPAPAPAR
B7: ctNup49 (protein, UniProt G0S4X2 1-470)
chain: MSLFGTNTTSQTPAGGGLFGTTTSQSAQTGSLFGTATSQPQQTGGLFGSTATQTPSSQLQSTGLFGSTTATSQPQQTGGLFGSTTTTTSQPQQTGGLFGATATSQPQSTGGLFGNTTTTSQPAQTVGLFGTTTQPQPAQSGGLFGSATQQKPATGGLFGSTTTNTGAGLFGNTSNTIGGGGLFGQTAKPATGGLFGQSTTQPQQQQNATPGLTMGQSTNTQQQVVPGVRIDLSNIKSTTRFNDLTEALQQEIAKIDEEIQKCIRDKEAVDAFLPAHGEQLAAIPTDVNFVTRKSEGAHNALSSDILAIDQLRELVKQDADNARLSFKAIDNLKLPMQYHQAGLWSKQMGGAGTAGASGASADADGQSNADLISYFSKTADEMEEMMKKFEKTITEIEAHLTGVEAHAMAMQNVAAQSRNAAQGGVDERVYELAAVLREFEESILKVAGVVGGVKEGVTELQLRDFMGHGS

Each molecule was assayed against T1, FpA-tagged ctNup53 (construct P_ACTIN-FpA-NUP53-TGPD) (Chaetomium thermophilum) (assay: affinity purification with mass spectrometry; magnetic-bead affinity capture of FpA-tagged bait from cryo-milled C. thermophilum mycelium in 24-well format under various extraction conditions (Supplementary Table 1); for ctNup53 proteins identified from condition #9; SDS-PAGE, Coomassie).

binding, binds:
ctNup188 (from UniProt G0SFH5 1-1858)
ctNup145N
B1
B2
B3
B4
B5
B6
B7
